Reference: PubChem BioAssay AID2685 (National Center for Advancing Translational Sciences (NCATS), 2010)
Among all 320,000 compounds or so, about 2,100 (0.66%) were called active. This list was built around the results that the source calls inconclusive (neither active nor inactive); the mix of calls is not that of the screen. Calls come from the whole dose curve; as a rule, active = well fitted inhibition curve with a large enough effect in the signal ratio, with a control signal flat (not every such curve was filed as active); inconclusive = small, poorly fitted or top-dose-only effect, or effect the other way, or a change in a side signal; inactive = flat fitted curve, though single readings scatter; the % refers to the signal ratio. A potency beside an inconclusive call is a rough fit, not a confirmed value.

Experiment: qHTS Assay for Lipid Storage Modulators in Drosophila S3 Cells
Conditions: BODIPY lipid droplet fluorescence, 18-24 h, cells fed with added oleic acid; lipid storage change, negative = inhibition: at 46.1 µM (top of the series) unless noted
In short: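 Drosophila S3 cells got compounds at several concentrations plus oleic acid (400 uM solution). Laser-scanning cytometry with 488 nm excitation read lipid droplets at 500-530 nm and cells at 575-640 nm. Percent activity was relative to 20 uM Triacsin C.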
% is set by controls: 0 for no effect and ±100 for the full control effect; potency is the fitted concentration of half-maximal effect.

| Structure (SMILES) | Potency | lipid storage change, negative = inhibition |
| --- | --- | --- |
| CCn1cc(C(=O)NCC(OC)OC)c(=O)c2cc(S(=O)(=O)N(C)C3CCCCC3)ccc21 | inconclusive: 23.1 µM [activator, partial curve] | – |
| Cc1onc(-c2c(Cl)cccc2Cl)c1C(=O)NCCN1CCOCC1 | – | inconclusive: -56.5% |
| CC(C)C(=O)Nc1cccc(C(=O)Nc2nncs2)c1 | – | inconclusive: 10% |
| CCCn1c(O)c(CN2CCCC(C)C2)c(C)c(C#N)c1=O (centres undefined) | – | inconclusive: -74.3% |
| Cc1nc(N)sc1Cc1ccc2c(c1)OCO2 | – | inconclusive: 35.6% |
| O=C(Nc1cccc(Cl)c1N1CCOCC1)c1ccc(Br)o1 | inconclusive: 10.3 µM [falling, partial curve] | – |
| O=C(c1ccc(C#Cc2ccccc2)o1)N1CCN(c2ccccn2)CC1 | – | inconclusive: 37% |
| CCOC1=C/C(=C/c2c(N)n3nc(-c4ccccc4)sc3nc2=O)C=CC1=O | – | inconclusive: 10.9% |
| COc1ccc2cc1Oc1ccc(cc1)C[C@H]1c3cc(c(OC)cc3CCN1C)Oc1c(OC)c(OC)cc3c1[C@@H](C2)N(C)CC3 | inconclusive: 14.6 µM [activator, partial curve] | – |
| Cc1ccc(CNS(=O)(=O)c2ccc(Br)s2)cc1 | inconclusive: 3.66 µM [activator, single point] | – |
| COc1cc(CC(=O)OCC(=O)N2CCCCC2C)cc(OC)c1OC (centres undefined) | inconclusive: 6.51 µM [activator, single point] | – |
| COc1ccccc1N1CCN(CC(=O)Nc2ccc(S(=O)(=O)N3CCCCCC3)cc2)CC1 | inconclusive: 29.1 µM [falling, single point] | – |
| Nc1ccc(S(=O)(=O)NC(Cc2ccccc2)C(=O)O)cc1 (centres undefined) | inconclusive: 2.91 µM [activator, single point] | – |
| Cc1cccc(C(=O)N[C@H](C(=O)NCCc2ccc(S(N)(=O)=O)cc2)C(C)C)c1 | – | inconclusive: 147% |
| CC(=O)N1CCc2c(sc3c2c(=O)n(-c2ccccc2)c(=O)n3Cc2ccccc2Cl)C1 | inconclusive: 6.51 µM [activator, single point] | – |
| O=C(Cc1cccs1)NNC(=O)c1ccccc1Cl | inconclusive: 3.66 µM [activator, single point] | – |
| Cn1c(CNC(=O)c2ccc3c(c2)OCO3)nnc1SCC(=O)Nc1ccc(F)cc1F | – | inconclusive: 9.56% |
| O=C(COc1ccc(S(=O)(=O)N2CCCC2)cc1)NCc1cccnc1 | – | inconclusive: -45.1% |
| CCN(c1cccc(C)c1)S(=O)(=O)c1ccc2c(c1)CCCN2C(C)=O | – | inconclusive: 79.3% |
| c1ccc2oc(SCc3cn4ccsc4n3)nc2c1 | – | inconclusive: 111% |
| COc1cccc(NC(=S)N2CCC(c3ccc(C)cc3)C2)c1 (centres undefined) | inconclusive: 29.1 µM [falling, single point] | – |
| Cc1ccc(NC(=O)CN2CCN(S(=O)(=O)c3ccc(F)cc3)CC2)cc1C | – | inconclusive: 29.1% |
| COc1ccccc1N(CC(=O)NC1CCCC1)S(=O)(=O)c1cccc(C(F)(F)F)c1 | inconclusive: 6.51 µM [activator, single point] | – |
| Cc1ccc(S(=O)(=O)CCC(=O)NCCN2C(=O)S/C(=C\c3ccccc3)C2=O)cc1 | inconclusive: 18.4 µM [falling, single point] | – |
| COC(=O)Cc1c(O)ccn(Cc2ccc(F)cc2)c1=O | inconclusive: 32.6 µM [activator, single point] | – |
| CCC(=O)Nc1c2c(nn1-c1ccc(OC)cc1)CSC2 | inconclusive: 18.4 µM [activator, partial curve] | – |
| Cc1ccc(N(CC2CO2)S(=O)(=O)c2ccccc2[N+](=O)[O-])cc1 (centres undefined) | – | inconclusive: -171% |

3 neighbouring entries out of the list so far, for reference:

| Structure (SMILES) | Potency | lipid storage change, negative = inhibition |
| --- | --- | --- |
| COc1ccccc1N1CCN(CC(=O)Nc2ccc(S(=O)(=O)N3CCCCCC3)cc2)CC1 | inconclusive: 29.1 µM [falling, single point] | – |
| Nc1ccc(S(=O)(=O)NC(Cc2ccccc2)C(=O)O)cc1 (centres undefined) | inconclusive: 2.91 µM [activator, single point] | – |
| Cc1cccc(C(=O)N[C@H](C(=O)NCCc2ccc(S(N)(=O)=O)cc2)C(C)C)c1 | – | inconclusive: 147% |

Continued.

| Structure (SMILES) | Potency | lipid storage change, negative = inhibition |
| --- | --- | --- |
| N#CCSc1nnc(-c2sc3ccccc3c2Cl)o1 | – | inconclusive: 12.9% |
| CC(=O)Nc1ccc2nsnc2c1 | – | inconclusive: -26.5% |
| Clc1ccc(OCCNCCc2ccccc2)cc1 | – | inconclusive: 0.0118% |
| O=c1ccnc(S/C=C/c2ccccc2)[nH]1 | inconclusive: 0.13 µM [falling, partial curve, poor fit] | – |
| CC(OC(=O)c1cc2sccc2n1C)C(=O)NCCc1ccccc1 (centres undefined) | inconclusive: 29.1 µM [activator, single point] | – |
| O=C(Nc1cccnc1Cl)c1ccc(=O)oc1 | – | inconclusive: -16.1% |
| COC(=O)c1ccc(Sc2ccccc2NS(=O)(=O)c2ccc(C)cc2)nc1 | – | inconclusive: 31.6% |
| CN(C)S(=O)(=O)c1cccc(C(=O)C2=C3SC=C(c4ccccc4)N3CC2)c1 | – | inconclusive: 3.5% |
| Cc1ccc(-c2cc(C)nc3ncnn23)cc1 | – | inconclusive: 73.3% |
| O=S(=O)(N/N=C\C=C\c1ccccc1)c1ccc(Cl)cc1 | active: 11.6 µM | – |
| C=CCn1sc(N)c(C(=O)OCC)c1=S | – | inconclusive: -34.3% |
| Cc1nc2scc(C)n2c(=O)c1S(=O)(=O)Nc1ccc(F)cc1 | – | inconclusive: -13.5% |
| O=c1oc(-c2ccccc2)cc(Cl)c1Cl | inconclusive: 0.206 µM [falling, full curve, poor fit] | – |
| CCOC(=O)c1ccc(NC(=O)Cc2coc3cc4c(cc23)CCC4)cc1 | – | inconclusive: -44.2% |
| O=c1[nH]nc(-c2ccc(NCCCO)c([N+](=O)[O-])c2)c2ccccc12 | – | inconclusive: 33.3% |
| COc1ccc(-n2c(N)c(C(=O)NCc3ccco3)sc2=S)cc1 | – | inconclusive: 6.01% |
| Cc1ccc(S(=O)(=O)N2CCc3ccccc3C2)cc1 | inconclusive: 29.1 µM [falling, single point] | – |
| O=C(N/N=C/c1cccc2ccccc12)c1ccc(CN2CCOCC2)cc1 | – | inconclusive: 53.5% |
| O=[N+]([O-])c1ccc(N/N=C/c2cccc(O)c2O)c(S(=O)(=O)N2CCOCC2)c1 | – | inconclusive: -31.9% |
| O=[N+]([O-])c1ccc(N/N=C/c2cn(-c3ccccc3)nc2-c2ccccc2)cc1 | – | inconclusive: 21.7% |
| O=C(Sc1nnc(-c2ccccc2)o1)N1c2ccccc2Sc2ccccc21 | – | inconclusive: -9.4% |
| O=C(CN1CCN(S(=O)(=O)c2ccc(Br)cc2)CC1)c1ccc(O)c(O)c1 | – | inconclusive: -52.5% |
| COc1ccc(CN2C(=S)NC(C)(C)CC2(C)O)cc1 (centres undefined) | – | inconclusive: -23.9% |
| O=S(=O)(c1ccccc1)c1ccc(N2CCCCCC2)cc1 | – | inconclusive: -85.6% |
| CCc1ccc(N2C(=O)CN(Cc3ccc(OC)c(OC)c3)C2=S)cc1 | – | inconclusive: 15% |
| CN(CCN1CCOCC1)Cc1nc(-c2ccccc2)no1 | inconclusive: 6.51 µM [falling, single point] | – |
| COc1ccc(NC(=O)/C=C/c2ccc(OC)c(OC)c2)cn1 | – | inconclusive: -34.3% |

| Structure (SMILES) | Potency | lipid storage change, negative = inhibition |
| --- | --- | --- |
| Cn1c(/C(C#N)=C(\O)CN2CCN(Cc3ccccc3)CC2)nc2ccccc21 | – | inconclusive: 30% |
| S=C(Nc1cccc(Cl)c1)Nc1ccc2c(c1)OCCO2 | – | inconclusive: 5.13% |
| COc1ccc(C(=O)Nc2cc(C)cc(C)c2)cc1S(=O)(=O)N1CCOCC1 | inconclusive: 32.6 µM [falling, single point] | – |
| Cn1cnnc1SCC(=O)NC1CCCC1 | – | inconclusive: -21.9% |
| CC(C)(C)NC(=O)C(c1ccccc1F)N(Cc1ccco1)C(=O)c1csnn1 (centres undefined) | – | inconclusive: -13.3% |
| O=C(Nc1nnc(-c2ccc(Cl)cc2)o1)c1nc2ccccc2s1 | – | inconclusive: -61.4% |
| COC(=O)/C=c1\[nH]c2nnc(C)n2c1=O | – | inconclusive: -17% |
| COC(=O)C1CCN(c2nc3ccccc3nc2C(C#N)C(=O)OCC(C)C)CC1 (centres undefined) | – | inconclusive: 16.8% |
| O=C(COC(=O)c1c(F)cccc1F)NCc1ccc2c(c1)OCO2 | – | inconclusive: 29.1% |
| Nc1nn(-c2cccc(F)n2)cc1-c1ccc(Cl)cc1 | – | inconclusive: 21.5% |
| Brc1cc2c(cc1C1Nc3ccccc3C3C=CCC31)OCO2 (centres undefined) | inconclusive: 29.1 µM [activator, single point] | – |
| NC(=O)CC(NC(=O)Cc1ccc(Br)cc1)c1ccc(NCCN2CCCCC2)c([N+](=O)[O-])c1 (centres undefined) | – | inconclusive: -1.99% |
| CCC(CC)Nc1ccc(C(CC(N)=O)NC(=O)Cc2cccc3ccccc23)cc1[N+](=O)[O-] (centres undefined) | – | inconclusive: -83.9% |
| Cc1ccc(N2CC(C(=O)N3CCCCCC3)CC2=O)cc1 (centres undefined) | – | inconclusive: 17% |
| Cc1nc2nc(COc3ccccc3)nn2c(C)c1Cl | inconclusive: 0.517 µM [activator, full curve, poor fit] | – |
| Cc1nc2ccccc2c(=O)n1N(c1ccccc1)c1ccccc1 | – | inconclusive: -5.63% |
| CSCc1c(C(=O)Nc2ccc3c(c2)OCO3)oc2ccccc12 | – | inconclusive: 24.8% |
| COc1ccc(OCCSc2nnc3sc4ccccc4n23)cc1 | – | inconclusive: -32.6% |
| CN(CC(=O)Nc1ccc(N2CCOCC2)cc1)C(=O)c1cc(S(=O)(=O)N(C)C)ccc1Cl | – | inconclusive: 25.7% |
| Cc1c(Br)c([N+](=O)[O-])nn1CC(=O)NCc1cccs1 | – | inconclusive: -16.2% |
| O=c1c(-c2cccc(Cl)c2)c[nH]n1-c1ccccc1 | – | inconclusive: 12.5% |
| O=C(Nc1ccccc1C(=O)N/N=C/c1ccccc1)c1ccco1 | – | inconclusive: -13.8% |
| Cc1c(/N=C/c2ccco2)n(Cc2ccccc2)c2ccccc12 | – | inconclusive: -80% |
| CCCC(=O)N1c2ccc(-c3csc(N)n3)cc2CC1C (centres undefined) | – | inconclusive: 53% |
| COc1cccc(NC(=O)N2CCC(NC(=O)C(Cc3cccc(C)c3)NC(C)=O)CC2)c1 (centres undefined) | – | inconclusive: 65.1% |
